# Assay results: paper doi:10.1101/2021.07.12.452044
# Protein sequences, listed by entry. Tags and fused reporters are not part of them.
# UniProt O15042: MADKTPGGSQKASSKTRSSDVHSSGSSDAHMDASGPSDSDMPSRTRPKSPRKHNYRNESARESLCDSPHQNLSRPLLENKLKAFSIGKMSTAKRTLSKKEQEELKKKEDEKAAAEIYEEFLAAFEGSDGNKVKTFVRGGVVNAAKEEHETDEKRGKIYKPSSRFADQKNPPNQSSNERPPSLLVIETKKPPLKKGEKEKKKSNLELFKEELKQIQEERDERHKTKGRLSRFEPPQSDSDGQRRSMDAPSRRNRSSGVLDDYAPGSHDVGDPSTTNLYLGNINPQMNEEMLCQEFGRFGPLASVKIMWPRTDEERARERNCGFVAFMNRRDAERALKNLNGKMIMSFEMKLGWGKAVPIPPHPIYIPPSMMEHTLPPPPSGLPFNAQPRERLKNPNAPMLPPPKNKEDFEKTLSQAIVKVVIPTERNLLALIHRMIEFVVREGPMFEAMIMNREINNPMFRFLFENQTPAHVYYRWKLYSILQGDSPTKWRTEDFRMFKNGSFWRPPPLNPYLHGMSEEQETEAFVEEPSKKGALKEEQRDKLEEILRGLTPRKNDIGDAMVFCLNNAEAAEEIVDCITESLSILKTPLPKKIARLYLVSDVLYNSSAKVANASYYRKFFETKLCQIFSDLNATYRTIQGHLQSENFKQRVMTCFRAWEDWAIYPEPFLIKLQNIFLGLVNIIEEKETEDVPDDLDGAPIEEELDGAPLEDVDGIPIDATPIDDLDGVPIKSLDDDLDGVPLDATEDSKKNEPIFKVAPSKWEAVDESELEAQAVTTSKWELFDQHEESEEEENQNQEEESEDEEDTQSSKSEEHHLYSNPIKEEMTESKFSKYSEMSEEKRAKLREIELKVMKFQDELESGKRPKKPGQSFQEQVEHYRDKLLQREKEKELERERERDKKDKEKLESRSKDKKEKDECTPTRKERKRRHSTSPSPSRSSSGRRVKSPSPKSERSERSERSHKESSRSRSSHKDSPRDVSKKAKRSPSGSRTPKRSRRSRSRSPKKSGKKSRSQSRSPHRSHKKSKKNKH
# UniProt P98175: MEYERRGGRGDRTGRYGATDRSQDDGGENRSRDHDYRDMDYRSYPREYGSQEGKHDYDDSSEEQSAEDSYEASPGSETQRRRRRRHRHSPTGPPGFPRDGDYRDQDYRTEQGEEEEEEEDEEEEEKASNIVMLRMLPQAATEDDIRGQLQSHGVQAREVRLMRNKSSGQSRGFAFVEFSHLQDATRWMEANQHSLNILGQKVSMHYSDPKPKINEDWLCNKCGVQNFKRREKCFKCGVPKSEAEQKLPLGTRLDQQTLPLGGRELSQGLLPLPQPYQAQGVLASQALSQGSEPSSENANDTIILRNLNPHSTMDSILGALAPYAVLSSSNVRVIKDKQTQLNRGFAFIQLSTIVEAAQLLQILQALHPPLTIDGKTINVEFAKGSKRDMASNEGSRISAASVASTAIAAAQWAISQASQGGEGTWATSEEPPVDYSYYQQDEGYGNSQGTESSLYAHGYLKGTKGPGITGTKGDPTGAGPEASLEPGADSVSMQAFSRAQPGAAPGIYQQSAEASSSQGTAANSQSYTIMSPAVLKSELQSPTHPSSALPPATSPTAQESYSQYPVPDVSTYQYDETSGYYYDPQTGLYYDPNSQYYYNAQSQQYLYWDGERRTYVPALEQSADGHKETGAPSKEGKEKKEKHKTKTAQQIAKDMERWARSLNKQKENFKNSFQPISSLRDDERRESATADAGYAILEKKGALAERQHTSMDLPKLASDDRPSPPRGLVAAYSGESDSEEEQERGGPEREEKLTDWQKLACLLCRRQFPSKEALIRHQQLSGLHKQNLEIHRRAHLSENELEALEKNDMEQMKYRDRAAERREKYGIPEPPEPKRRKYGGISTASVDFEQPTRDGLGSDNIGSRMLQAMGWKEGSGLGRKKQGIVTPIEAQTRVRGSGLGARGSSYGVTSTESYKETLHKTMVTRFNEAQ
# T1: wild-type RBM20 C-terminally fused to BirA* (BioID) and FLAG tag (human) (UniProt Q5T481)
# T1 sequence: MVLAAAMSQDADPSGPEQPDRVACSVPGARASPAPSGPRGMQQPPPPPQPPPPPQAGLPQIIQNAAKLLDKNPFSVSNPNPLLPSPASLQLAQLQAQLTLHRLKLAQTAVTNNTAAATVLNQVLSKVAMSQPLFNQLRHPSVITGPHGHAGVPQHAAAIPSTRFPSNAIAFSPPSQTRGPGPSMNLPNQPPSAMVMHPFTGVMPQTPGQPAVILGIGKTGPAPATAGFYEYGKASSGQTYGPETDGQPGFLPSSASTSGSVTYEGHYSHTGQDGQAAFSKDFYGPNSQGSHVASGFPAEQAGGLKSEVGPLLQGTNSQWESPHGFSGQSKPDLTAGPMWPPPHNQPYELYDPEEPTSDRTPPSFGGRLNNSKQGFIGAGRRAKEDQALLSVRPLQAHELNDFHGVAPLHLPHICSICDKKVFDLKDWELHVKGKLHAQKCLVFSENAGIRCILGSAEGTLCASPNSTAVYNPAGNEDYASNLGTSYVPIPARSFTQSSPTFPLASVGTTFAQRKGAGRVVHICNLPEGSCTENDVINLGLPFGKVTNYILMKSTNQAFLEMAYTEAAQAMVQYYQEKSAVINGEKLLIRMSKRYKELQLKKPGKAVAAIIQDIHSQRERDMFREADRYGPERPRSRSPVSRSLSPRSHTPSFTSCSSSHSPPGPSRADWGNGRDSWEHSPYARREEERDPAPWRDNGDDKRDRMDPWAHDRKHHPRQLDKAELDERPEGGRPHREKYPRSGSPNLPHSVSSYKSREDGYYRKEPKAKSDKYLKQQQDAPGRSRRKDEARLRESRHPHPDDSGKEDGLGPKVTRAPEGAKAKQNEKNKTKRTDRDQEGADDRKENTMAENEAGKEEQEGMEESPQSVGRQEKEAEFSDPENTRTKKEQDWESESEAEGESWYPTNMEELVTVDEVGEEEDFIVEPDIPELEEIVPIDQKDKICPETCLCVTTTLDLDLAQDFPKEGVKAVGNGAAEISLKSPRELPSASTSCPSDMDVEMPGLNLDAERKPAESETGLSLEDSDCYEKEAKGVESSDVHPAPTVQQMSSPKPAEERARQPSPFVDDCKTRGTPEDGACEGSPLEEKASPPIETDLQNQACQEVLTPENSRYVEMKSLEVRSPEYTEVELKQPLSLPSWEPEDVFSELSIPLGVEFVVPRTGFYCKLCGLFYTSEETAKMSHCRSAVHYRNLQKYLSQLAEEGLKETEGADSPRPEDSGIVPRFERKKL
# Molecular target: T1, wild-type RBM20 C-terminally fused to BirA* (BioID) and FLAG tag (human)
# Assay: proximity labelling
row,binding,Molecule
1,binds,U2SURP (from UniProt O15042 1-1029)
2,binds,RBM10 (from UniProt P98175 1-930)
3,binds,"DDX46 (protein, UniProt Q7L014 1-1031) MGRESRHYRKRSASRGRSGSRSRSRSPSDKRSKRGDDRRSRSRDRDRRRERSRSRDKRRSRSRDRKRLRRSRSRERDRSRERRRSRSRDRRRSRSRSRGRRSRSSSPGNKSKKTENRSRSKEKTDGGESSKEKKKDKDDKEDEKEKDAGNFDQNKLEEEMRKRKERVEKWREEQRKKAMENIGELKKEIEEMKQGKKWSLEDDDDDEDDPAEAEKEGNEMEGEELDPLDAYMEEVKEEVKKFNMRSVKGGGGNEKKSGPTVTKVVTVVTTKKAVVDSDKKKGELMENDQDAMEYSSEEEEVDLQTALTGYQTKQRKLLEPVDHGKIEYEPFRKNFYVEVPELAKMSQEEVNVFRLEMEGITVKGKGCPKPIKSWVQCGISMKILNSLKKHGYEKPTPIQTQAIPAIMSGRDLIGIAKTGSGKTIAFLLPMFRHIMDQRSLEEGEGPIAVIMTPTRELALQITKECKKFSKTLGLRVVCVYGGTGISEQIAELKRGAEIIVCTPGRMIDMLAANSGRVTNLRRVTYVVLDEADRMFDMGFEPQVMRIVDNVRPDRQTVMFSATFPRAMEALARRILSKPIEVQVGGRSVVCSDVEQQVIVIEEEKKFLKLLELLGHYQESGSVIIFVDKQEHADGLLKDLMRASYPCMSLHGGIDQYDRDSIINDFKNGTCKLLVATSVAARGLDVKHLILVVNYSCPNHYEDYVHRAGRTGRAGNKGYAYTFITEDQARYAGDIIKALELSGTAVPPDLEKLWSDFKDQQKAEGKIIKKSSGFSGKGFKFDETEQALANERKKLQKAALGLQDSDDEDAAVDIDEQIESMFNSKKRVKDMAAPGTSSVPAPTAGNAEKLEIAKRLALRINAQKNLGIESQDVMQQATNAILRGGTILAPTVSAKTIAEQLAEKINAKLNYVPLEKQEEERQDGGQNESFKRYEEELEINDFPQTARWKVTSKEALQRISEYSEAAITIRGTYFPPGKEPKEGERKIYLAIESANELAVQKAKAEITRLIKEELIRLQNSYQPTNKGRYKVL"
4,binds,"RBM17 (protein, UniProt Q96I25 1-401) MSLYDDLGVETSDSKTEGWSKNFKLLQSQLQVKKAALTQAKSQRTKQSTVLAPVIDLKRGGSSDDRQIVDTPPHVAAGLKDPVPSGFSAGEVLIPLADEYDPMFPNDYEKVVKRQREERQRQRELERQKEIEEREKRRKDRHEASGFARRPDPDSDEDEDYERERRKRSMGGAAIAPPTSLVEKDKELPRDFPYEEDSRPRSQSSKAAIPPPVYEEQDRPRSPTGPSNSFLANMGGTVAHKIMQKYGFREGQGLGKHEQGLSTALSVEKTSKRGGKIIVGDATEKDASKKSDSNPLTEILKCPTKVVLLRNMVGAGEVDEDLEVETKEECEKYGKVGKCVIFEIPGAPDDEAVRIFLEFERVESAIKAVVDLNGRYFGGRVVKACFYNLDKFRVLDLAEQV"
5,binds,"SF1 (protein, UniProt Q15637 1-639) MATGANATPLDFPSKKRKRSRWNQDTMEQKTVIPGMPTVIPPGLTREQERAYIVQLQIEDLTRKLRTGDLGIPPNPEDRSPSPEPIYNSEGKRLNTREFRTRKKLEEERHNLITEMVALNPDFKPPADYKPPATRVSDKVMIPQDEYPEINFVGLLIGPRGNTLKNIEKECNAKIMIRGKGSVKEGKVGRKDGQMLPGEDEPLHALVTANTMENVKKAVEQIRNILKQGIETPEDQNDLRKMQLRELARLNGTLREDDNRILRPWQSSETRSITNTTVCTKCGGAGHIASDCKFQRPGDPQSAQDKARMDKEYLSLMAELGEAPVPASVGSTSGPATTPLASAPRPAAPANNPPPPSLMSTTQSRPPWMNSGPSESRPYHGMHGGGPGGPGGGPHSFPHPLPSLTGGHGGHPMQHNPNGPPPPWMQPPPPPMNQGPHPPGHHGPPPMDQYLGSTPVGSGVYRLHQGKGMMPPPPMGMMPPPPPPPSGQPPPPPSGPLPPWQQQQQQPPPPPPPSSSMASSTPLPWQQNTTTTTTSAGTGSIPPWQQQQAAAAASPGAPQMQGNPTMVPLPPGVQPPLPPGAPPPPPPPPPGSAGMMYAPPPPPPPPMDPSNFVTMMGMGVAGMPPFGMPPAPPPPPPQN"

# No constants are given. Whether binding was seen depends on the method and setting. Binding seen in cells or lysates may run through a third protein. A yes stands for co-enrichment or nearness to the bait. Other partners may have been found. Tags and fused reporters may be left off the sequences shown.
